Counter-ions that a name gives are not always drawn. Some entries share one result that the patent states for a list of compounds.
Assays:
[1] = provided by patent CN105218484A; cited from earlier work
[2] = Related substances stability of solid salt forms (HPLC); format: physicochemical; settings: high-temperature, high-humidity and acceleration conditions for 10 days

Molecule	Solubility [1]	Changes in the related substances [2] [%]
CN(C)C(=O)N[C@H]1CC[C@H](CCN2CCN(c3cccc(Cl)c3Cl)CC2)CC1 [cariprazine hydrochloride]	greater than 3 mg/mL	
CN(C)C(=O)NC1CCC(CCN2CCN(c3cccc(Cl)c3Cl)CC2)CC1 (stereo not shown) [cariprazine mono-1-hydroxy-2-naphthoate dihydrate]		≤ 0.3
cariprazine maleate	greater than 3 mg/mL	
cariprazine phosphate	greater than 3 mg/mL	
